Source: publication PMC10447241 (Nature, 2023)
These are yes or no findings as the source states them, for the method shown. Binding seen in cells or lysates may run through a third protein. Some binding calls cover weakened binding; strength is not graded here.

The chains behind the UniProt entries cited, without tags or fusion partners. Where a name states a change or a piece, a line headed by the entry shows the natural chain unless it says otherwise. A line that says so, or that is headed by a name, gives the form on record, which may keep a tag or linker. Residues count along the entry.
wild-type GCGR with Rluc8 at the C terminus (P47871, residues 26-477): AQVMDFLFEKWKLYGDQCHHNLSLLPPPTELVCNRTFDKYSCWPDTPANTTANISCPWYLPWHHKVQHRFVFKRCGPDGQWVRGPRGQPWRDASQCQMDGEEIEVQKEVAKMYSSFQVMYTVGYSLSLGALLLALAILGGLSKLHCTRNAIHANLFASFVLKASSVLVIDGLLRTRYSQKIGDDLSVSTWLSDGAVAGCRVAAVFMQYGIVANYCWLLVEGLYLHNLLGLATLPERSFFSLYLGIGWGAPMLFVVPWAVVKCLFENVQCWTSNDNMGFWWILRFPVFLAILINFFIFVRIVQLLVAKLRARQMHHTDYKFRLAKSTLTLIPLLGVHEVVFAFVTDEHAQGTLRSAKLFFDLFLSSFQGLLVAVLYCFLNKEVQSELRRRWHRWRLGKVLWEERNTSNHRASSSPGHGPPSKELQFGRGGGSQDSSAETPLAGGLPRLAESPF
GCGR G165W with Rluc8 at the C terminus (P47871, form named): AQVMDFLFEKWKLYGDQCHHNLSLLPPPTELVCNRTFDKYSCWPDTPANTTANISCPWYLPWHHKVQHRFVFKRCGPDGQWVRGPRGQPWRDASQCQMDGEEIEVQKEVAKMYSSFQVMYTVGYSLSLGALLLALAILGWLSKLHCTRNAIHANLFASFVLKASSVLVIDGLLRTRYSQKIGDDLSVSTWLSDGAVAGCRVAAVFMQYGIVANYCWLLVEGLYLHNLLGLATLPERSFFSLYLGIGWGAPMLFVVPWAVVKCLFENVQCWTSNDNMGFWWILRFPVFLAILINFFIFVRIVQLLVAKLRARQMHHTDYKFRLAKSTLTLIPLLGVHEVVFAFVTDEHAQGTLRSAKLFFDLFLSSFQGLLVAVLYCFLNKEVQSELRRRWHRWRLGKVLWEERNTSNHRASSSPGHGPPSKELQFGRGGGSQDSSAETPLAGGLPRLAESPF
GCGR W425A with Rluc8 at the C terminus (P47871, form named): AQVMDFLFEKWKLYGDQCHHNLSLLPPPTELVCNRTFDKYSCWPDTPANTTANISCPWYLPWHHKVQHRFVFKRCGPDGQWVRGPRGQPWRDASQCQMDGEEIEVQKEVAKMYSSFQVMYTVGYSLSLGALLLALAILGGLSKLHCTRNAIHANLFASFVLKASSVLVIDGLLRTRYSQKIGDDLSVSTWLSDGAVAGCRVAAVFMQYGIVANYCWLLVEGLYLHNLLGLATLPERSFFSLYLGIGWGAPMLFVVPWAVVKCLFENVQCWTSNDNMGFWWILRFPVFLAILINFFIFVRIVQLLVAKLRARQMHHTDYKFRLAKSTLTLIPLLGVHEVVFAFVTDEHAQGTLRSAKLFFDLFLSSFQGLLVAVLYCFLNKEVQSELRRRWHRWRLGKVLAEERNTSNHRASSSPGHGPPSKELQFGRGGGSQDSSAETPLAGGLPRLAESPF
GCGR S167A with Rluc8 at the C terminus (P47871, form named): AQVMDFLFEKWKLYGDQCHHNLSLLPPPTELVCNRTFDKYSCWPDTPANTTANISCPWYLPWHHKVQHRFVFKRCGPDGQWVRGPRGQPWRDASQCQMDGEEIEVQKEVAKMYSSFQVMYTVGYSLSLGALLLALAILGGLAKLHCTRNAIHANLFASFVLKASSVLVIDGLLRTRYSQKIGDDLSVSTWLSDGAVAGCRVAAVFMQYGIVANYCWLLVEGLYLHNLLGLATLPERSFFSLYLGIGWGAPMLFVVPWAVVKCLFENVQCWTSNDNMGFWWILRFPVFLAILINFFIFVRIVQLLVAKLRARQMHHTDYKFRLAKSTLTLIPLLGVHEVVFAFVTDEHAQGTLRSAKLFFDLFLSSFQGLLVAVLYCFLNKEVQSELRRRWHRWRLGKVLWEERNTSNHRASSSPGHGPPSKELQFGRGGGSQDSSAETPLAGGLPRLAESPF
UniProt P49407: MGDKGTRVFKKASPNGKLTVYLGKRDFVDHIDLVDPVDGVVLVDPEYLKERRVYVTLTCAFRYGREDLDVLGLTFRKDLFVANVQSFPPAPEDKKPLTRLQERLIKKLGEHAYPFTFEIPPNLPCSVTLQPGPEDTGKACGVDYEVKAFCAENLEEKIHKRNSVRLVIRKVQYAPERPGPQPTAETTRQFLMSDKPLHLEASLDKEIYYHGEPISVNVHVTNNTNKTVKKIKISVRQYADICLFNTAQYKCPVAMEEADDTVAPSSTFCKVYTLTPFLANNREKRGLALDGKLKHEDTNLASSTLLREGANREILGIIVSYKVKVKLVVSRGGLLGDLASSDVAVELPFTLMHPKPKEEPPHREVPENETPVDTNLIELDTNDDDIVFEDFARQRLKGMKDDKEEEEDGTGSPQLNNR

Legend:
Assay in all cases: FRET or BRET; GCGR–Rluc8 (or mutants) and βarr1–GFP2 (or mutants) co-transfected 1:1 in HEK293F cells; glucagon 1 pM to 10 μM; HBSS, 20 mM HEPES pH 7.4; coelenterazine 400a; EC50 is that of glucagon in inducing the BRET signal
[1] = molecular target: GCGR G165W with Rluc8 at the C terminus (human) (UniProt P47871)
[2] = molecular target: wild-type GCGR with Rluc8 at the C terminus (human) (UniProt P47871)
[3] = molecular target: GCGR W425A with Rluc8 at the C terminus (human) (UniProt P47871)
[4] = molecular target: GCGR S167A with Rluc8 at the C terminus (human) (UniProt P47871)

Substance | binding [1] | binding [2] | binding [3] | binding [4]
human βarr1 with GFP2 at the C terminus (from UniProt P49407 1-418) | binds | binds | binds weakly | binds
βarr1 R285A with GFP2 at the C terminus (from UniProt P49407 1-418) |  | binds weakly |  | 
